Some of these results come from one statement about several compounds together. Some ranges recur; such a range may be that of the whole group of compounds.
Tested on: Brown Rice Planthopper (Nilaparvata Lugens)
Type: in vivo
Settings: 500 ppm liquid chemical, rice seedlings immersed 30 seconds, third-instar nymphs; eight days after the inoculation

Structure (SMILES) | insecticidal effect (corrected mortality) against brown rice planthopper
OCC1COC(c2cncnc2OCc2ccc(C(F)(F)F)cc2)O1 (single isomer, unassigned) [15-79] | D (control efficacy 79%-50%)
CCCCCCCc1cncnc1OCc1ccc(C(C)(C)C)cc1 [1-31] | D (control efficacy 79%-50%)
CC(C)(C)c1ccc(COc2ncncc2C=O)cc1 [1-52] | D (control efficacy 79%-50%)
CCCCCCCc1cncnc1OCc1ccc(C(F)(F)F)cc1 [2-31] | D (control efficacy 79%-50%)
CC(C)ON=Cc1cncnc1OCc1ccc(C(F)(F)F)cc1 [2-57] | D (control efficacy 79%-50%)
CCOC(=O)c1cncnc1OCc1ccc(OC(F)(F)F)cc1 [3-88] | D (control efficacy 79%-50%)
COC(OC)c1cncnc1OCc1ccc(OC(C)C)cc1 [4-44] | D (control efficacy 79%-50%)
CCOC(OCC)c1cncnc1OCc1ccc(C(F)(F)F)cc1 [4-51] | D (control efficacy 79%-50%)
CCOC(OCC)c1cncnc1OCc1ccc(OC(F)(F)F)cc1 [4-52] | D (control efficacy 79%-50%)
CSC(SC)c1cncnc1OCc1ccc(C(F)(F)F)cc1 [4-81] | D (control efficacy 79%-50%)
CSC(SC)c1cncnc1OCc1ccc(OC(F)(F)F)cc1 [4-82] | D (control efficacy 79%-50%)
CC(C)(O)C#Cc1cncnc1OCc1ccc(C(F)(F)F)cc1 [8-33] | D (control efficacy 79%-50%)
OCC#Cc1cncnc1OCc1ccc(C(F)(F)F)cc1 [8-36] | D (control efficacy 79%-50%)
CC(=O)NCc1cncnc1OCc1ccc(C(F)(F)F)cc1 [8-45] | D (control efficacy 79%-50%)
FC(F)(F)c1ccc(COc2ncncc2C(Br)CBr)cc1 (stereo not drawn) [8-47] | D (control efficacy 79%-50%)
CC(C)(C)c1ccc(COc2ncncc2C2OCCCS2)cc1 (stereo not drawn) [9-9] | D (control efficacy 79%-50%)
CC1(c2cncnc2OCc2ccc(C(F)(F)F)cc2)OCCO1 [9-35] | D (control efficacy 79%-50%)
CC1(c2cncnc2OCc2ccc(C(F)(F)F)cc2)OCCCO1 [9-36] | D (control efficacy 79%-50%)
COC(=O)C(C#N)=Cc1cncnc1OCc1ccc(C(F)(F)F)cc1 [14-1] | D (control efficacy 79%-50%)
N#CC(C#N)=Cc1cncnc1OCc1ccc(C(F)(F)F)cc1 [14-9] | D (control efficacy 79%-50%)
O=C(O)CC(O)c1cncnc1OCc1ccc(C(F)(F)F)cc1 (stereo not drawn) [14-22] | D (control efficacy 79%-50%)
FC(F)(F)c1ccc(COc2ncncc2CN2CCCC2)cc1 [14-29] | D (control efficacy 79%-50%)
CN1CC(c2cncnc2OCc2ccc(C(F)(F)F)cc2)OC1=O (stereo not drawn) [14-36] | D (control efficacy 79%-50%)
CNCc1cncnc1OCc1ccc(C(F)(F)F)cc1 [14-37] | D (control efficacy 79%-50%)
FC(F)(F)c1ccc(COc2ncncc2CNc2ccccc2)cc1 [14-39] | D (control efficacy 79%-50%)
CC(=O)N(Cc1cncnc1OCc1ccc(C(F)(F)F)cc1)c1ccccc1 [14-40] | D (control efficacy 79%-50%)

Structure (SMILES) | insecticidal effect (corrected mortality) against brown rice planthopper
FC(F)(F)c1ccc(COc2ncncc2CN2CCCCC2)cc1 [14-43] | D (control efficacy 79%-50%)
CC(C)(C)OC(=O)CN1CC(c2cncnc2OCc2ccc(C(F)(F)F)cc2)OC1=O (stereo not drawn) [14-51] | D (control efficacy 79%-50%)
COC(=O)C1(c2cncnc2OCc2ccc(C(F)(F)F)cc2)CC1 [14-53] | D (control efficacy 79%-50%)
CC[S+]([O-])Cc1cncnc1OCc1ccc(C(F)(F)F)cc1 (stereo not drawn) [14-58] | D (control efficacy 79%-50%)
CCS(=O)(=O)Cc1cncnc1OCc1ccc(C(F)(F)F)cc1 [14-59] | D (control efficacy 79%-50%)
COC(=O)C=Cc1cncnc1OCc1ccc(C(F)(F)F)cc1 [14-62] | D (control efficacy 79%-50%)
CCS(Cc1cncnc1OCc1ccc(C(F)(F)F)cc1)=NC#N (stereo not drawn) [14-67] | D (control efficacy 79%-50%)
CC(C)(C)NC(=O)c1cncnc1OCc1ccc(C(F)(F)F)cc1 [14-69] | D (control efficacy 79%-50%)
COC(O)(c1cncnc1OCc1ccc(C(F)(F)F)cc1)C(F)(F)F (stereo not drawn) [14-103] | D (control efficacy 79%-50%)
CN(Cc1cncnc1OCc1ccc(C(F)(F)F)cc1)S(C)(=O)=O [14-109] | D (control efficacy 79%-50%)
CCCN(CCC)Cc1cncnc1OCc1ccc(C(F)(F)F)cc1 [14-116] | D (control efficacy 79%-50%)
COC(OC)c1cncnc1OCc1ccc(F)cc1F [15-7] | D (control efficacy 79%-50%)
Cc1ccc(COc2ncncc2C2OCCCO2)cc1 [15-20] | D (control efficacy 79%-50%)
Fc1ccc(COc2ncncc2C2OCCCO2)cc1 [15-21] | D (control efficacy 79%-50%)
COc1ccc(COc2ncncc2C2OCCCO2)cc1 [15-23] | D (control efficacy 79%-50%)
CCc1ccc(COc2ncncc2C2OCCCO2)cc1 [15-25] | D (control efficacy 79%-50%)
CCOc1ccc(COc2ncncc2C2OCCCO2)cc1 [15-26] | D (control efficacy 79%-50%)
Clc1ccc(COc2ncncc2C2OCCCO2)cc1Cl [15-28] | D (control efficacy 79%-50%)
Fc1ccc(COc2ncncc2C2OCCCO2)c(Cl)c1 [15-37] | D (control efficacy 79%-50%)
Clc1cc(Br)ccc1COc1ncncc1C1OCCCO1 [15-38] | D (control efficacy 79%-50%)
FC(F)(F)Sc1ccc(-c2ccc(COc3ncncc3C3OCCCO3)cc2)cc1 [15-50] | D (control efficacy 79%-50%)
FC(F)(F)Oc1ccc(Oc2ccc(COc3ncncc3C3OCCCO3)cc2)cc1 [15-57] | D (control efficacy 79%-50%)
FC(F)(F)Cc1ccc(COc2ncncc2C2OCCCO2)cc1 [15-58] | D (control efficacy 79%-50%)
Brc1ccc(COc2ncncc2C2OCCCCO2)cc1 [15-64] | D (control efficacy 79%-50%)
Fc1ccc(COc2ncncc2C2OCCCCO2)cc1 [15-66] | D (control efficacy 79%-50%)

Source: patent US9750252B2, “Arylalkyloxy pyrimidine derivative, pesticide for agricultural and horticultural use containing arylalkyloxy pyrimidine derivative as active ingredient, and use of same” (NIHON NOHYAKU CO., LTD., priority 2012, dated 2017)
